The test concerns the target T1, biotin-tagged XAB2 (XPA-binding protein 2) from aviXab2+/+;birA knock-in mice (mouse) (UniProt Q9DCD2).
T1 sequence (chain, biotin on the 15aa Avitag (added in vivo by the BirA ligase)): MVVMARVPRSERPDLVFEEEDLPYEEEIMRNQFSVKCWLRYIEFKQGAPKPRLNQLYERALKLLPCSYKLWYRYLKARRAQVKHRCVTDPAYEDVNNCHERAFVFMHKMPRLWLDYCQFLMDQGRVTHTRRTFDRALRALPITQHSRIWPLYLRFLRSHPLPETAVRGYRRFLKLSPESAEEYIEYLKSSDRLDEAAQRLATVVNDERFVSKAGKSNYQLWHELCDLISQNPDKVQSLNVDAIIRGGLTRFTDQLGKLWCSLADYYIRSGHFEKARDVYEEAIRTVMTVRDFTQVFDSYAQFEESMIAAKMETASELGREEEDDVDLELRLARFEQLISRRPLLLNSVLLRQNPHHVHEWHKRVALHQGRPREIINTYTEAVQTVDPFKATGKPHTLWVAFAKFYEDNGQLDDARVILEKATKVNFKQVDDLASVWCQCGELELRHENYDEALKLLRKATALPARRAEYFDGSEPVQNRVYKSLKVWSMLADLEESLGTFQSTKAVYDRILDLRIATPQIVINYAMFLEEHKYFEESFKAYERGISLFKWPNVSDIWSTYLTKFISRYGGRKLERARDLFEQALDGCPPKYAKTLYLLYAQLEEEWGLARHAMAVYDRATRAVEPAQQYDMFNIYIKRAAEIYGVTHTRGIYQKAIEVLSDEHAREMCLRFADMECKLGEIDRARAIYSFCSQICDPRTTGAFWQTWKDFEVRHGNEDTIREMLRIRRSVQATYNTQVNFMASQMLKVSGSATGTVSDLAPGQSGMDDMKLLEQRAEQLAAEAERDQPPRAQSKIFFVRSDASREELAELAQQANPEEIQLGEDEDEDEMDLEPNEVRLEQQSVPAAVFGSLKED
Kind of test: affinity purification with mass spectrometry; bXAB2 captured on M-280 streptavidin beads from high-salt nuclear extracts of P15 bXAB2 livers treated with benzonase and RNase A; BirA livers as control; three biological replicates, nLC-MS/MS.

No constants are given. Whether binding was seen depends on the method and setting. Binding seen in cells or lysates may run through a third protein. Here binding means that the protein was enriched with, or labelled near, the bait; the list need not be complete. Tags and fused reporters may be left off the sequences shown.

B1: NUP160 (protein, UniProt Q9Z0W3 1-1402)
chain: MAAAGSLERSFVELSGAERERPRHFREFTVCDIGTASAAFGTVKYSESAGGFYYVESGKLFSITRNRFIHWKTSGDTLELVEESLDLNLLNNAVRLKFQNYNILPGGVHVSETQNHVIILILTNQTVHRLILPHPSRMYRSELVTESQMQSIFTDIGKVDFRDPCNSQLIPSVPGLSPGSTTSAAWLSSDGEALFALPSASGGIFVLKLPPYDVPGIASVVELKQSSVMQRLLTGWMPTAIRGDHGPSDRALSLAVHCVEHDAFIFALCQDHKLRMWSYKDQMCLMVADMLEYVPVNKDLRLTAGTGHKLRLAYSPSMGLYLGIYMHAPKRGQFCVFQLVSTENNRYSLDHISSLFTSQETLVDFALTSTDIWALWHDAENQTIVKYINFEHNVAGQWNPVFMQPLPEEEIVIRDDQDPREMYLRSLFTPGHFINAALCKALQIFCRGTERNLDLSWNELKKEITLAVENELQGSVTEYEFSQDEFRTLQQEFWCKFYACVLQYQEALSHPLALHLNPVTNMVCLLKKGYLSFLVPSSLVDHLYLLPDEHLLTEDETTISDDADVARDVLCLIKCLRMIGESVTMDMAVLMETSCYNLQSPEKAAEHILEDLITIDVENVMEDICSKLQEIRNPVHAIGLLIREMDYETEVEMEKGFDPAQPLNVRMNLSQLYGSSTAGYIVCRGVYKIASTRFLICRDLLILQQLLTRLGDAVILGAGQLFQAQQDLLHRTAPLLLSYYLIKWASQCLATDVPVDTLESNLQHLSVLELTDSGALMANKLVSSPQTIMELFFQEVARKQIISHLFSQPKAPLSQTGLNWPEMITAVTGYLLQLLWPSNPGCLFLECLMGNCQYVQLQDYIQLLHPWCQVNVGSCRFMLGRCYLVTGEVQKALECFCQAASEVGKEEFLDRLIRSEDGEIVSTPKLQYYDKVLRLLDVVGLPELVIQLATSAITEAGDDWKSQATLRTCIFKHHLDLGHNSQAYEALTQIPDSSRQLDCLRQLVVVLCERSQLQDLVEFPYVNLHNEVVGIIESRARAVDLMTHNYYELLYAFHIYRHNYRKAGTVMFEYGMRLGREVRTLRGLEKQGNCYLAAINCLRLIRPEYAWIVQPASGAVSDRPGASPKRNHDGECTAAPTNRQIEILELEDLEKEYSLARIRLTLARHDPSVIAIAGSSSAKEMSALLVQAGLFDTAISLCQTFTLPLTPVFEGLAFKCIKLQFGGEAAQGEAWSWLATNQLSSVITTKESSATDEAWRLLSTYLERYKVQNNLYHHCVINKLLSHGVPLPNWLINSYKKVDAAELLRLYLNYDLLEEAVDLVSEYVDAVLGKGHQYFGIEFPLSATAPMVWLPYSSIDQLLQALGENSANSHNIILSQKILDKLEDYQQKVDKATRDLLYRRDL
As for B1, the binding result was “binds”.

B2: NUP153 (protein, UniProt E9Q3G8 1-1462)
chain: MASEAGGIGGGGGGGKIRTRRCHQGPVKPYQQGRPQHQGILSRVTESVKNIVPGWLQRYFNKSENACSCSPDADEVPPWPENREDEHAIYADENTNTDDGRITPDPAGSNTEEPSTTSTASNYPDVLTRPSLHRSHLNFSVLESPALHCQPSTSSAFPIGSSGFSLVKEIKDSTSQHDDDNISTTSGFSSRASEKDIAVSKNTSLPPLWSPEAERSHSLSQHTAISSKKPAFNLSAFGTLSTSLGNSSILKTSQLGDSPFYPGKTTYGGAAAAVRQNKVRSTPYQAPVRRQMKAKQLNAQSYGVTSSTARRILQSLEKMSSPLADAKRIPSAVSSPLNSPLDRSGIDNTVFQAKKEKVDSQYPPVQRLMTPKPVSIATNRTVYFKPSLTPSGDLRKTNQRIDKKNSTVDEKSISRQNREQESGFSYPNFSIPAANGLSSGVGGGGGKMRRERTHFVAPKPPENEEVEAPLLPQISLPISSSSLPTFSFSSPVTSASPSPVSSSQPLPNKVQMTSLGSTGSPVFTFSSPIVKSTQAAVLPPASIGFTFSVPLAKTEFSGSNSSSETVLSSSAQDITAVNSSSYKKRSAPCEDPFTPAKILREGSVLDILKTPGFASPKVDSPALQPTTTSSIVYTRPAISTFSSSGIEYGESLKAGSSWQCDTCLLQNKVTDNKCIACQAAKLPLKETAKQTGTGTPSKSDKPASTSGTGFGDKFKPAIGTWDCDTCLVQNKPEAVKCVACETPKPGTGVKRALTLTVASESPVTASSSTTVTTGTLGFGDKFKRPVGSWECPVCCVCNKAEDNRCVSCTSEKPGLVSASSSSPAPVSLSSGGCLGLDKFKKPEGSWDCEVCLVQNKADSAKCIACESAKPGTKSEFKGFGTSSSLNPAPSAFKFGIPSSSSGLSQTLTSTGNFKFGDQGGFKLGTSSDSGSTNTMNTNFKFSKPTGDFKFGVLSDSKPEEVKNDNKNDNFQFGSSSGLTNPASSAPFQFGVSTLGQQEKKEELPKSSPAGFSFGAGVNNPPNAAIDTTATSENKSGFNFGTLDTKSVSVTPFTYKTTEAKKEDAPATKGGFTFGKVGSSSLPSSSMFVLGRTEEKQQEPVTSTSLVFGKKADSEEPKCQPVFSFGNSEQTKDESSKPTFSFSVAKPSGKESEQLAKATFAFGNQTNTTTDQGAAKPVFSFLNSSSSSSSAPATSSSGGIFGSSTSSSNPPVAAFVFGQASNPVSSSAFGNAAESSTSQSLLFPQESEPATTSSTAPAASPFVFGTGASSNSVSSGFTFGATTTSSSSGSSFVFGTGHSAPSASPAFGANQTPTFGQSQGASQPNPPSFGSISSSTALFSAGSQPVPPPIFGTVSSSSQPPVFGQQPSQSAFGSGTANASSVFQFGSSTTNFNFTNNNPSGVFTFGASPSTPAASAQPSGSGVFSFSQSPASFTVGSNGKNMFSSSGTSVSGRKIKTAVRRKK
With B2, the binding entry was “binds”.

These data come from paper PMC8155215, “The splicing factor XAB2 interacts with ERCC1-XPF and XPG for R-loop processing”.
